Test results published in the supplement of paper PMC12823440, “Inhibitors supercharge kinase turnover through native proteolytic circuits” (Nature, 2025).
Structures can show the parent of a compound that is named as a salt. The list shows a part of the results. Hit calls seldom repeat between salt and free forms of one compound.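 Kinases, fused to nanoluciferase, were expressed in K562 cells; luminescence was measured every 4 h from 2 to 18 h as percent of control (DMSO = 100%, positive control = 0%). A time point is decreased if signal falls significantly (2 sigma). Hits were called by the authors by a rule that is not shown; the count of time points alone does not decide it.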

Chains of the proteins cited; added tags and fusions are not shown. Lines headed by an entry give the natural chain unless they say otherwise; changes in a name come on top.
UniProt P49840: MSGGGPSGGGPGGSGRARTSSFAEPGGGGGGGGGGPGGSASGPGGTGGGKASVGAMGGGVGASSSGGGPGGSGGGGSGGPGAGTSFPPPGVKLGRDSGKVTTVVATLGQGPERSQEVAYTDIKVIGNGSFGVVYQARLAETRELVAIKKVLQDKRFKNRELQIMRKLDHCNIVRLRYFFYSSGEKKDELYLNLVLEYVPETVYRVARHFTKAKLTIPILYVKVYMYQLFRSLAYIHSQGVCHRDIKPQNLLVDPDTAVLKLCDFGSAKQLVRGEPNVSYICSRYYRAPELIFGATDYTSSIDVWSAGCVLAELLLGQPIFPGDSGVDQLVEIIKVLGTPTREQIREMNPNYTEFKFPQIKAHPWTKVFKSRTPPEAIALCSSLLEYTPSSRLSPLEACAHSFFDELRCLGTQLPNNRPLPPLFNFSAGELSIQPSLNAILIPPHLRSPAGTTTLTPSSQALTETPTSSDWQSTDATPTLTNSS
UniProt P23458: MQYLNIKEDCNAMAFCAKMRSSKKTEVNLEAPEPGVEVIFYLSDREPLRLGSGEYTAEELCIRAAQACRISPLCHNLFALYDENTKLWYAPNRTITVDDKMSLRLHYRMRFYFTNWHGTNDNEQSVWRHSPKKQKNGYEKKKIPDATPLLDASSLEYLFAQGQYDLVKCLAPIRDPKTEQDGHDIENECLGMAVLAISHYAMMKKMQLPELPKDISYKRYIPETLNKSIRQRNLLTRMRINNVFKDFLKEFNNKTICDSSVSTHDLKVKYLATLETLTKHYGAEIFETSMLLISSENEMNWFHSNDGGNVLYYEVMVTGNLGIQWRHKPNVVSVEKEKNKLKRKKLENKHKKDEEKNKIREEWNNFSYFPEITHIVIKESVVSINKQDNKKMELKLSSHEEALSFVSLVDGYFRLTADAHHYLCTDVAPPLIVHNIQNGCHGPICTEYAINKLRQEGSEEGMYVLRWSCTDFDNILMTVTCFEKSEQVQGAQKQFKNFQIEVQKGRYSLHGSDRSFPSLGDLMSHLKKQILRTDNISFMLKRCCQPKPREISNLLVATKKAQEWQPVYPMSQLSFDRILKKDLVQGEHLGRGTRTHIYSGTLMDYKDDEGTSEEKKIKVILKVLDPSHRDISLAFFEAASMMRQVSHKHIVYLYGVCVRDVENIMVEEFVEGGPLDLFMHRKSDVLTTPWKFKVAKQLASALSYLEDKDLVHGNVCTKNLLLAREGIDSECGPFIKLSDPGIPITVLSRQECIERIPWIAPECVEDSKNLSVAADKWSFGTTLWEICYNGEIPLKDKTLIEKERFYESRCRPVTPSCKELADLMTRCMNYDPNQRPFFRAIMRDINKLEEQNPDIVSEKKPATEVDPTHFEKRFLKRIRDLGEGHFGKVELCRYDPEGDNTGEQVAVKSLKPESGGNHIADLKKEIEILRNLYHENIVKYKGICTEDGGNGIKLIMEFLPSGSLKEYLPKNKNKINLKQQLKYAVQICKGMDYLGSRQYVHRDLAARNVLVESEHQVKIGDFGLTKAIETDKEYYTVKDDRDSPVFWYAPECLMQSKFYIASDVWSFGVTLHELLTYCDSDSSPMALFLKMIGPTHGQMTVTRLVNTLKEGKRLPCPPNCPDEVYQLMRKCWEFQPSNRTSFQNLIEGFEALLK
UniProt P53667: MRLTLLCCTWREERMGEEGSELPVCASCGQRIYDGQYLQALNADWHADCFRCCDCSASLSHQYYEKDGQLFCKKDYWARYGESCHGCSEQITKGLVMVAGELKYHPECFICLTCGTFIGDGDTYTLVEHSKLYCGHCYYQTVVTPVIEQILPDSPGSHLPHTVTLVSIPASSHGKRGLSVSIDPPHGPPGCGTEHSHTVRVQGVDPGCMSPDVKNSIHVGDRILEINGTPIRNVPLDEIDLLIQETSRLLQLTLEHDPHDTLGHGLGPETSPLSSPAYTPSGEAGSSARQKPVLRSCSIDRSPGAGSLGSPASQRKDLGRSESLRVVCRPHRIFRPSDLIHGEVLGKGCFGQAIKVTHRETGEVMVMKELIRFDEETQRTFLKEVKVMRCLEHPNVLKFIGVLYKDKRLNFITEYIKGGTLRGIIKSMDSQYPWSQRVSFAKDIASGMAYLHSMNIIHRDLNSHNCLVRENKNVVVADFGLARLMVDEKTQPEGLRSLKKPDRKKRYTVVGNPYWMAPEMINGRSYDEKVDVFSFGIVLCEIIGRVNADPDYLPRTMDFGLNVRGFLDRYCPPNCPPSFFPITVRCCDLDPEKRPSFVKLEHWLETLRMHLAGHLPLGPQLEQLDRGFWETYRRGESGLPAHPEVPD
UniProt Q8IWU2: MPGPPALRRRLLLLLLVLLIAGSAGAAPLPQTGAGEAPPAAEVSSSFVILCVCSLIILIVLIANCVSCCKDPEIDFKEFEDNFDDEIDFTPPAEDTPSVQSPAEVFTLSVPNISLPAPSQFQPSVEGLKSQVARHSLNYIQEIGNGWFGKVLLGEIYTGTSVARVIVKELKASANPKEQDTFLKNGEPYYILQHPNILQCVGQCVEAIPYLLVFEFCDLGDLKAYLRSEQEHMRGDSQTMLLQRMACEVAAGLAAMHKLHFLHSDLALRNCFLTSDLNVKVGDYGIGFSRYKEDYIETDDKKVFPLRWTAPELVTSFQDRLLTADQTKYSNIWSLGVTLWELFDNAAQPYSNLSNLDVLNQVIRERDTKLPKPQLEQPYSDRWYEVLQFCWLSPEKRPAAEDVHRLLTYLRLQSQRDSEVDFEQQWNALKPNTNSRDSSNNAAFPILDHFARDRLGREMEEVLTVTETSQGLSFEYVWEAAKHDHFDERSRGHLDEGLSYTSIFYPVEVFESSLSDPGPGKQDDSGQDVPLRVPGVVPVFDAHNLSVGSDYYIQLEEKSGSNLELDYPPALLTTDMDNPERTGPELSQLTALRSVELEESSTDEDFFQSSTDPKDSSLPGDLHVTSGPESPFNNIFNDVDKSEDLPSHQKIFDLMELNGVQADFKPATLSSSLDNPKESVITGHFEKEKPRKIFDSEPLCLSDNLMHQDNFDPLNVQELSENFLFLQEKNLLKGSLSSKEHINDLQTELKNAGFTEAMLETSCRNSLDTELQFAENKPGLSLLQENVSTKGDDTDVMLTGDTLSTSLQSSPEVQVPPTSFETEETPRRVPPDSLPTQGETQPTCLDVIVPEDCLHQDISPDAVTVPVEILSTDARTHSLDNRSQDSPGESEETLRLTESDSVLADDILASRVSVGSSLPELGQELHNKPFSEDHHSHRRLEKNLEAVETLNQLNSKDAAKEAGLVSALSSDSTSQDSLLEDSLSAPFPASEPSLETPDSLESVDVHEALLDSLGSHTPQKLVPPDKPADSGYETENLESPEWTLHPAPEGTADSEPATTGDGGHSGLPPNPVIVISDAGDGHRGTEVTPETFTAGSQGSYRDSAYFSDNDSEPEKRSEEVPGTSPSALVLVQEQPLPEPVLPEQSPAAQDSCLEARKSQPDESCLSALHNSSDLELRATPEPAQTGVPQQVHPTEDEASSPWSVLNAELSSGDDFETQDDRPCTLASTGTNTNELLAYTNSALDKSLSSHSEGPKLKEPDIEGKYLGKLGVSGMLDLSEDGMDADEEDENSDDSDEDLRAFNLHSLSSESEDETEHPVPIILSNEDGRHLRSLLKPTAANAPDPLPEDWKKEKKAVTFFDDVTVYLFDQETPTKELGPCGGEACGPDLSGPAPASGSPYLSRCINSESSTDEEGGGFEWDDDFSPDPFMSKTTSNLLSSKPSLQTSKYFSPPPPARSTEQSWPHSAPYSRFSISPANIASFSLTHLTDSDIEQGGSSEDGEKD
UniProt P07948: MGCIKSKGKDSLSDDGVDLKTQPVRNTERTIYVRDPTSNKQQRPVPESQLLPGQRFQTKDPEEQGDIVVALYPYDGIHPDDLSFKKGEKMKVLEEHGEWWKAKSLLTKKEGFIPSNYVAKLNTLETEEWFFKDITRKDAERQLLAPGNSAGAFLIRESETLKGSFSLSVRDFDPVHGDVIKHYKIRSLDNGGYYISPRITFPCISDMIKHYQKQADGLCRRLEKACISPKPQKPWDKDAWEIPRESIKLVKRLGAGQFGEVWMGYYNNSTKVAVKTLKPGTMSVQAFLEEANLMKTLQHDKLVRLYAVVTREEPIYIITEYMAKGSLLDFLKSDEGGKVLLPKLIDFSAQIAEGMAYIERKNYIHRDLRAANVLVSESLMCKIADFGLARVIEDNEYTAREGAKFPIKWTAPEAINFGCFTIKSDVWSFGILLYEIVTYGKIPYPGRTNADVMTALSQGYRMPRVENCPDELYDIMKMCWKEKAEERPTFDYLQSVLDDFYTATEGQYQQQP
UniProt Q12851: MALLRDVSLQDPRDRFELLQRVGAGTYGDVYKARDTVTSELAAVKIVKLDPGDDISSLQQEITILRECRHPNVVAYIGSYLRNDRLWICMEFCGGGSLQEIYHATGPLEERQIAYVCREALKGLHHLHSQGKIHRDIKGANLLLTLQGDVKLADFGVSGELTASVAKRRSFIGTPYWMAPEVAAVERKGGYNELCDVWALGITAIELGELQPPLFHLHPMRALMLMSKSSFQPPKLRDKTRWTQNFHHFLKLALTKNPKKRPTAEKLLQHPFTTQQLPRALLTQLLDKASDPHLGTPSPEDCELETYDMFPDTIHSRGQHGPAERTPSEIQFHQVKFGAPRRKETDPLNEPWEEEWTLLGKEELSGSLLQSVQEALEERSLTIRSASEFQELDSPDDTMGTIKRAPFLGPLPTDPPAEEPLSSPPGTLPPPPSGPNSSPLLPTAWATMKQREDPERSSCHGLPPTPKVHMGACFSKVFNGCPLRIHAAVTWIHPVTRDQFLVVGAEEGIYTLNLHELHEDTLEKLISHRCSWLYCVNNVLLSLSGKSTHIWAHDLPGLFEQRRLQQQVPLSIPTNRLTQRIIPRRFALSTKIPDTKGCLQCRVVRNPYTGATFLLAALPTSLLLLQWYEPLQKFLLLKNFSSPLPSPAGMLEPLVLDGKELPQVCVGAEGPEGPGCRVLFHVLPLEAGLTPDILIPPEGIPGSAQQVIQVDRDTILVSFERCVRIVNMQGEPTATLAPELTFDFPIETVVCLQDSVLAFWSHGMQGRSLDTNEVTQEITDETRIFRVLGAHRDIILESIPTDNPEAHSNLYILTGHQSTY
UniProt P31152, whole entry: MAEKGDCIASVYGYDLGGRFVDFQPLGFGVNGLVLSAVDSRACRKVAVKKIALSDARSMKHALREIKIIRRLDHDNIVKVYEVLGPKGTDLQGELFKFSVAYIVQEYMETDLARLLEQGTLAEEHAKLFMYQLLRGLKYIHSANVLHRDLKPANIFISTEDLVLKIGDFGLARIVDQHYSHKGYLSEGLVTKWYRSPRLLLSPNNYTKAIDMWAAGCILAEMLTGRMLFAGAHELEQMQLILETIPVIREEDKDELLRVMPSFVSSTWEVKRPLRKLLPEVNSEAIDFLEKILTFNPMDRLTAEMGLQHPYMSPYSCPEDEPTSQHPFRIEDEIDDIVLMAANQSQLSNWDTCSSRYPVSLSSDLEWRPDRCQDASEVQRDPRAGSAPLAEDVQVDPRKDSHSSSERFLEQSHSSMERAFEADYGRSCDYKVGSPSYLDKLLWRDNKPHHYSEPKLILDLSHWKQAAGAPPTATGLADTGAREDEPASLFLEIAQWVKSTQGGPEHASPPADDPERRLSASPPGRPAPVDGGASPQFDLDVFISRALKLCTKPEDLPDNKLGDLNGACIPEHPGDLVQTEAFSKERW
UniProt P49137, whole entry, looked up: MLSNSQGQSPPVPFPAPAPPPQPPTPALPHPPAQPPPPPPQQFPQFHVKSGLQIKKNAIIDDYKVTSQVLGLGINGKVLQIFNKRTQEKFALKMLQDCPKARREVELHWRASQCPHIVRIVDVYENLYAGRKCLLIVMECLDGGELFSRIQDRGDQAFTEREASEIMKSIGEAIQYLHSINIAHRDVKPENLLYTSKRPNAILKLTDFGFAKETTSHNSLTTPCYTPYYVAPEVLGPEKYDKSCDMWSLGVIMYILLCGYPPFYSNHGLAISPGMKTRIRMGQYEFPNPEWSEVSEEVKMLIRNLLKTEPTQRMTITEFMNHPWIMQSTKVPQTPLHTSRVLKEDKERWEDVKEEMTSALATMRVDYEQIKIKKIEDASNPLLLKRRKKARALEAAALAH
UniProt Q9BUB5: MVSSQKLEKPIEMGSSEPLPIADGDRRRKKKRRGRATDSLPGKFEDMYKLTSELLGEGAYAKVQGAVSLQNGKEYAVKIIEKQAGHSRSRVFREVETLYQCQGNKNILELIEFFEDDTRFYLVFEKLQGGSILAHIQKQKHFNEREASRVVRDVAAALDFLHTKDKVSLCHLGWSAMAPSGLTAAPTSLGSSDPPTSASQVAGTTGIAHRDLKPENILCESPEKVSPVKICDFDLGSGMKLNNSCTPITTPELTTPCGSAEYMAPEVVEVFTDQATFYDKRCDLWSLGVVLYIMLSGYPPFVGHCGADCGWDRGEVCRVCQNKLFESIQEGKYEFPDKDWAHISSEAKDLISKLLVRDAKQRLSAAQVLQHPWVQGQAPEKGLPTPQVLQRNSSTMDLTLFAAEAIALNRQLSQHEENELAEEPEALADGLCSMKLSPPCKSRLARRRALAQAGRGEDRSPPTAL

How the values were obtained:
Test in all cases: number of time points (of 5) at which kinase-Nluc abundance scored as decreased, DMSO-normalised (count); higher = more persistent destabilization
Conditions in all cases: K562; 2-18 h
FLT3 = FLT3 (UniProt P36888)
FYN = FYN (UniProt P06241)
GSK3A = GSK3A (UniProt P49840)
HER2 = HER2 (UniProt P04626)
INSRR = INSRR (UniProt P14616)
IRAK3 = IRAK3 (UniProt Q9Y616)
JAK1 = JAK1 (UniProt P23458)
LCK = LCK (UniProt P06239)
LIMK1 = LIMK1 (UniProt P53667)
LIMK2 = LIMK2 (UniProt P53671)
LMTK2 = LMTK2 (UniProt Q8IWU2)
LYN = LYN (UniProt P07948)
MAP2K1 = MAP2K1 (UniProt Q02750)
MAP2K2 = MAP2K2 (UniProt P36507)
MAP4K2 = MAP4K2 (UniProt Q12851)
MAPK1 = MAPK1 (UniProt P28482)
MAPK4 = MAPK4 (UniProt P31152)
MAPKAPK2 = MAPKAPK2 (UniProt P49137)
MKNK1 = MKNK1 (UniProt Q9BUB5)
NTRK2 = NTRK2 (UniProt Q16620)

SMILES	number of time points (FLT3)	number of time points (FYN)	number of time points (GSK3A)	number of time points (HER2)	number of time points (INSRR)	number of time points (IRAK3)	number of time points (JAK1)	number of time points (LCK)	number of time points (LIMK1)	number of time points (LIMK2)	number of time points (LMTK2)	number of time points (LYN)	number of time points (MAP2K1)	number of time points (MAP2K2)	number of time points (MAP4K2)	number of time points (MAPK1)	number of time points (MAPK4)	number of time points (MAPKAPK2)	number of time points (MKNK1)	number of time points (NTRK2)
Cc1ccc(C2CC(=O)NC(SCC(=O)Nc3nccs3)=C2C#N)cc1 (centres undefined) [Necrostatin-34] (10 µM)	0	0	0	0	0	0	0	0	0	0	0	0	0	0	0	0	0	0	0	0
CC1=C(C#N)C(c2ccc3[nH]nc(C)c3c2)C(C#N)=C(C)N1 (10 µM)	0	0	0	0	0	0	0	0	0	0	0	0	0	0	0	0	0	0	0	0
Cc1nc(NC(=O)N2CCC[C@H]2C(N)=O)sc1-c1ccnc(C(C)(C)C(F)(F)F)c1 [Alpelisib] (2.5 µM)	0	0	0	0	0	0	0	0	0	0	0	0	0	0	0	0	0	0	0	0
CCn1c(N)c(C(=O)NC)c(=O)c2ccc(C#CC(C)(O)COC)nc21 (centres undefined) (10 µM)	0	0	0	0	0	0	0	0	0	0	0	0	0	0	0	0	0	0	0	0
COc1ccc(-c2cc(=O)c3c(O)cc(O)cc3o2)cc1-c1c(O)cc(O)c2c(=O)cc(-c3ccc(O)cc3)oc12 [Bilobetin] (2.5 µM)	0	0	0	0	0	0	0	0	0	0	0	0	0	0	0	0	0	0	0	1
CO[C@@H]1[C@H](N(C)C(=O)c2ccccc2)C[C@H]2O[C@]1(C)n1c3ccccc3c3c4c(c5c6ccccc6n2c5c31)C(=O)NC4 [Midostaurin] (2.5 µM)		1	0	1	1	1	0	0	0	1	0	3	0	0	0	0	0	0	0	0
Cc1ccc(NC(=O)N2CCN(c3nc(N)nc4sc(-c5cccnc5)nc34)CC2)cc1 [PI4KIII beta inhibitor 3] (10 µM)	0	0	0	0	0	0	0	0	0	0	0	0	0	0	0	0	0	0	0	0
Nc1nccc(Oc2ccc3c(C(=O)Nc4cccc(C(F)(F)F)c4)cccc3c2)n1 (10 µM)	1	0	0	0	0	1	0	0	0	0	1	0	0	0	0	0	0	0	3	1
NC(=O)c1c(NC(=O)C2CC2)sc2c1CCCC2 (10 µM)	0	0	0	0	0	0	0	0	0	0	0	0	0	0	0	0	0	0	0	0
CC(C)(C)S(=O)(=O)c1cc2c(Nc3ccc4scnc4c3)ncnc2cc1OCCOP(=O)(O)O (2 µM)	0	0	0	0	0	0	0	0	0	0	0	0	0	0	0	0	0	0	0	0
O=C1OC(COc2ccccc2[N+](=O)[O-])CC1Cc1ccccc1 (centres undefined) (10 µM)	0	0	0	0	0	0	0	0	0	0	0	0	0	0	0	0	0	0	0	0
Nc1[nH]nc2nnc(-c3c(-c4ccccc4)nn4ccccc34)cc12 (10 µM)	0	0	0	0	0	0	0	0	0	0	0	0	0	0	0		0	0	0	0
COc1cc2nc(NC3CC3)nc(NC3CCN(C(C)C)CC3)c2cc1OC (10 µM)	0	3	0	0	0	0	0	0	2	0	0	1	0	0	0	0	0	0	0	0
Cc1cnc(Nc2ccc(F)cc2Cl)nc1-c1c[nH]c(C(=O)N[C@H](CO)c2cccc(Cl)c2)c1 (10 µM)	0	0	0	0	0	0	0	0	0	0	0	0	0	0	0		0	0	0	0
CCCS(=O)(=O)N[C@H]1C[C@@H](N(C)c2ncnc3[nH]ccc23)C1 [Abrocitinib] (10 µM)	0	0	0	0	0	0		0	0	0	0	0	0	0	0	0	0	0	0	0
CN1CCN(Cc2ccc(-c3cnc4[nH]cc(-c5ccc6[nH]ccc6c5)c4c3)cc2)CC1 (2.5 µM)	0	2	0	0	0	3	0	0	2	0	0	0	0	0	0	0	0	0	0	0
Cc1cncc2cccc(S(=O)(=O)N3CCCNC[C@@H]3C)c12 [H-1152 (dihydrochloride)] (10 µM)	0	0	0	0	0	0	0		0	0	0	0	0	0	0	0	0	0	0	0
Oc1ccc(-c2cnc3ccc(NCc4ccco4)nn23)cc1 [IRAK inhibitor 2] (2.5 µM)	0	1	0	0	0	0	0	0	1	0	0	0	0	0	0	0	0	0	0	0
N#C/C(=C/c1ccc(O)c(O)c1)C(=O)N1CCc2ccccc21 [Tyrphostin AG 528] (10 µM)	0	0	0	0	0	0	0	0	0	0	0	0	0	0	0	0	0	0	0	0
CCCCNc1ncc(C(=O)NCc2ccc(-n3ccnc3)cc2)c(NC2CCC(O)CC2)n1 (centres undefined) (10 µM)		0	0	2	0	0	4	0	0	0	0	0	0	0	0	0	0	0	1	1

Individual results from the list:
number of time points (IRAK3), CCCCNc1ncc(C(=O)NCc2ccc(-n3ccnc3)cc2)c(NC2CCC(O)CC2)n1 (centres undefined) (10 µM) is entered as 0
number of time points (FLT3), COc1ccc(-c2cc(=O)c3c(O)cc(O)cc3o2)cc1-c1c(O)cc(O)c2c(=O)cc(-c3ccc(O)cc3)oc12 [Bilobetin] (2.5 µM) is entered as 0
